In publication doi:10.1101/2020.03.26.010314 one finds binding data, which are given here for seven molecules.

Amino acid sequences for entries named in this document (tags omitted). Residues count along the entry.
UniProt D3YZU1: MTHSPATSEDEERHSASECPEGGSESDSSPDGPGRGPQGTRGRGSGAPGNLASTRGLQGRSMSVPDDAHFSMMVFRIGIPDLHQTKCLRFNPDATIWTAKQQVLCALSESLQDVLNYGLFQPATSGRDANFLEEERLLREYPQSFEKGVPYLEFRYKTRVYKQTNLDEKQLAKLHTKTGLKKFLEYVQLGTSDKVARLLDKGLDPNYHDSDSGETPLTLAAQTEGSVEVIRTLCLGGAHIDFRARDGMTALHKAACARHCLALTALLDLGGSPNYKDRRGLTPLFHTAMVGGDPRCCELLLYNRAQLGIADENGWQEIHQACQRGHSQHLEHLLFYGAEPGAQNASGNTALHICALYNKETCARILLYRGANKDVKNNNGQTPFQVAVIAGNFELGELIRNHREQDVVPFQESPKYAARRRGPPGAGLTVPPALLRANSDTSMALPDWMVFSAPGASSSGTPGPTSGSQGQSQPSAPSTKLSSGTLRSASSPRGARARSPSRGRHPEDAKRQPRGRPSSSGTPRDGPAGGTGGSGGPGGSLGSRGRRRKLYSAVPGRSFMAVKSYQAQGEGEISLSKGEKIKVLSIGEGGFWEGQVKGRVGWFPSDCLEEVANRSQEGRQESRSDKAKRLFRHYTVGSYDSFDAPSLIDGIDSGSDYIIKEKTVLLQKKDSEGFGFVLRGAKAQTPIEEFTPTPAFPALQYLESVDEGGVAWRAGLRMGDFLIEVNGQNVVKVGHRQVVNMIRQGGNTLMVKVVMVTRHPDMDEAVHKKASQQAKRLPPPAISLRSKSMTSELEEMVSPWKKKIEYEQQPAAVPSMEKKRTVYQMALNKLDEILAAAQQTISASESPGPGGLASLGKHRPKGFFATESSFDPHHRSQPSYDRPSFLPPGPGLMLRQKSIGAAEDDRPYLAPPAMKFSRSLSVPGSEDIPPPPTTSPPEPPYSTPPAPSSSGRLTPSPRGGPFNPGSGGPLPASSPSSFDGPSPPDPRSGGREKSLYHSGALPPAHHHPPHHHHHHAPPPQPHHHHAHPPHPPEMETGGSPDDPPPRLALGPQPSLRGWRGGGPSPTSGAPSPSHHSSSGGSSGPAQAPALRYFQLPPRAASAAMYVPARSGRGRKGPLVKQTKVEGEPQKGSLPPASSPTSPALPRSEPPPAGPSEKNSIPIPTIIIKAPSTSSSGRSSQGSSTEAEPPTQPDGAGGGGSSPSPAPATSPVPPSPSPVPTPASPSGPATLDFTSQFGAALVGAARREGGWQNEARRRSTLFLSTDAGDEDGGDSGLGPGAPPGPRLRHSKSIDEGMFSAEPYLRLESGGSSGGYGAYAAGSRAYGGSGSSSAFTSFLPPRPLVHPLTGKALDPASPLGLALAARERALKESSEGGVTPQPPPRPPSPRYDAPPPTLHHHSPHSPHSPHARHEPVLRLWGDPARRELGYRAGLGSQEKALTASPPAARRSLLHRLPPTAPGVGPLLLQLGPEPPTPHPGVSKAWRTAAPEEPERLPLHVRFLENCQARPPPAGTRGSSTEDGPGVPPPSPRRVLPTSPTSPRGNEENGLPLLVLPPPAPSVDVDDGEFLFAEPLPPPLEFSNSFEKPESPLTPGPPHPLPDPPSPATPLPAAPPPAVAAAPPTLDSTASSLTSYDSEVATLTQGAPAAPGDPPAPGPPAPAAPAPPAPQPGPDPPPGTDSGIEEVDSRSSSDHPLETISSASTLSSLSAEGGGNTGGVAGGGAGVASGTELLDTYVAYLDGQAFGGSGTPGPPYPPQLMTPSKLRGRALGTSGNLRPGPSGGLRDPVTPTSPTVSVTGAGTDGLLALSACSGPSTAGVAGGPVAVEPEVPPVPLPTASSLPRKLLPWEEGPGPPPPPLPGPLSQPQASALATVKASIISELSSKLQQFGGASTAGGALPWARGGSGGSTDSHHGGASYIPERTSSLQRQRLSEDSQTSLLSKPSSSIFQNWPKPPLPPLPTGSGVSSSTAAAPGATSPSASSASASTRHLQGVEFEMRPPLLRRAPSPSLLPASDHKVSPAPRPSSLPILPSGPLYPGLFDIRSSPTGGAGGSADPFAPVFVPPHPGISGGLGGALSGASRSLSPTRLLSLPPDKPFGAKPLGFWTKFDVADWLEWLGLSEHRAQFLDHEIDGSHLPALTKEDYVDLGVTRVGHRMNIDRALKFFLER
UniProt Q8BYM5, residues 35-825: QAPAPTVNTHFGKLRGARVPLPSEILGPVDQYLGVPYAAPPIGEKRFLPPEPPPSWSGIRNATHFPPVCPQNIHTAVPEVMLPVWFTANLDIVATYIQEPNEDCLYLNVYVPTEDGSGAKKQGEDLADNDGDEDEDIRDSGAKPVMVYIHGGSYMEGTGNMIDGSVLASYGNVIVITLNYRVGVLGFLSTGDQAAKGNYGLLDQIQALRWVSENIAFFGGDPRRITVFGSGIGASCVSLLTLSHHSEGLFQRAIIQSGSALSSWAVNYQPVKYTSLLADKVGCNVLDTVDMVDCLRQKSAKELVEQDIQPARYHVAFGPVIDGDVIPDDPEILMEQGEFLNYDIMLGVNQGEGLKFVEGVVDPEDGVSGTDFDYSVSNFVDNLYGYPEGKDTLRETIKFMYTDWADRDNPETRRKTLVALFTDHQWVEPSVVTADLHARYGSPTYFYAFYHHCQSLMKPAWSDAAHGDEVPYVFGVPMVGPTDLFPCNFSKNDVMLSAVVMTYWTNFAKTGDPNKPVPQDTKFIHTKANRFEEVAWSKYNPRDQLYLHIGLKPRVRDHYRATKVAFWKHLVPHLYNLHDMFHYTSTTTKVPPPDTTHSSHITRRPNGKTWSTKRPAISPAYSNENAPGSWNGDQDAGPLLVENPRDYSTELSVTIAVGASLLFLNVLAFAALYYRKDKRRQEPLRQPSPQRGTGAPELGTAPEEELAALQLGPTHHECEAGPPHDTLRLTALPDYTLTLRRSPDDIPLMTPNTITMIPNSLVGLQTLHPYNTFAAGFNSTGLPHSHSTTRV
UniProt P39688: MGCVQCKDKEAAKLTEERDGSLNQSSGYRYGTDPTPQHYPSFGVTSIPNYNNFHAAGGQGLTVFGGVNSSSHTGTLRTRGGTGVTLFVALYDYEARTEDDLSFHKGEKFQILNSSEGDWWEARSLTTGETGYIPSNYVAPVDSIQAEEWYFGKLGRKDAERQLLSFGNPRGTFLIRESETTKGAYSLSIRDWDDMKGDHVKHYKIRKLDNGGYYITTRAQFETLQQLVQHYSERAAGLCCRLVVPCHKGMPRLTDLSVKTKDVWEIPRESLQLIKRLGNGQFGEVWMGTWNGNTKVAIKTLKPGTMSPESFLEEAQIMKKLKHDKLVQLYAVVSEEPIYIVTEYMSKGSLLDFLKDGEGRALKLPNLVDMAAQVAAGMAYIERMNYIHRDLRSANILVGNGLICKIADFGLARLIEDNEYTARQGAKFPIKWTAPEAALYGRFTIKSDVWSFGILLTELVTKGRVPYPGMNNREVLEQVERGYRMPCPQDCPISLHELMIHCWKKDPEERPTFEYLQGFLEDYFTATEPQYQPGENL
UniProt Q3UHD9: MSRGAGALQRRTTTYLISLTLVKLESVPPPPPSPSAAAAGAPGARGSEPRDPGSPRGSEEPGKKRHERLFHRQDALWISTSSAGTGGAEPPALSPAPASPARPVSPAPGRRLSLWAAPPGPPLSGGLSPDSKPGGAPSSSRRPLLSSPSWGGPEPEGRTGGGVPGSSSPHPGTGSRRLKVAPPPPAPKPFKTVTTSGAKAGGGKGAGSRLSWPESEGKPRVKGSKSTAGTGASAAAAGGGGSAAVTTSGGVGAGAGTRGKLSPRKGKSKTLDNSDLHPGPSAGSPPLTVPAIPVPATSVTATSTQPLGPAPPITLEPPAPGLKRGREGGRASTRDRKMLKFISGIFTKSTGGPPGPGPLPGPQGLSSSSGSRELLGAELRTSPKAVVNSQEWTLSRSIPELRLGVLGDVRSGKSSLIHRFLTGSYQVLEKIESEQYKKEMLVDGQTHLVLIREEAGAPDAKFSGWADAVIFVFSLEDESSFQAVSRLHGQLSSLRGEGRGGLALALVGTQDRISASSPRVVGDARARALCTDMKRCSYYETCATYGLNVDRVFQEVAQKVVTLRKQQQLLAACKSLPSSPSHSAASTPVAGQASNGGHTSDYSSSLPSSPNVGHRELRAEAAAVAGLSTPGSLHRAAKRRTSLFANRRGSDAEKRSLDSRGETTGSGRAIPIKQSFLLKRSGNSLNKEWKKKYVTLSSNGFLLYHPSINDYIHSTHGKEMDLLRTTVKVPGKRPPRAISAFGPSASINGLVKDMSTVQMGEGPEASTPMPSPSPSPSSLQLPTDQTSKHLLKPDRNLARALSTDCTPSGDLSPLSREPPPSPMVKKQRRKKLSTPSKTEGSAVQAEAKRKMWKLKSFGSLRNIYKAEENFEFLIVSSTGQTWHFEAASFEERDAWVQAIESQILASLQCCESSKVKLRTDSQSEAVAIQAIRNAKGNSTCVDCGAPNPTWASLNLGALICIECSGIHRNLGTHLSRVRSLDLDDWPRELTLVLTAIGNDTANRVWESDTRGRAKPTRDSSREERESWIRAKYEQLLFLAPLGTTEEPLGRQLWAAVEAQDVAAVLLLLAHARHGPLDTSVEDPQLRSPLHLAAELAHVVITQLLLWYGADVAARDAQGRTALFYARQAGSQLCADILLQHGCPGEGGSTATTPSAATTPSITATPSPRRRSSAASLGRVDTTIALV
UniProt Q4ACU6: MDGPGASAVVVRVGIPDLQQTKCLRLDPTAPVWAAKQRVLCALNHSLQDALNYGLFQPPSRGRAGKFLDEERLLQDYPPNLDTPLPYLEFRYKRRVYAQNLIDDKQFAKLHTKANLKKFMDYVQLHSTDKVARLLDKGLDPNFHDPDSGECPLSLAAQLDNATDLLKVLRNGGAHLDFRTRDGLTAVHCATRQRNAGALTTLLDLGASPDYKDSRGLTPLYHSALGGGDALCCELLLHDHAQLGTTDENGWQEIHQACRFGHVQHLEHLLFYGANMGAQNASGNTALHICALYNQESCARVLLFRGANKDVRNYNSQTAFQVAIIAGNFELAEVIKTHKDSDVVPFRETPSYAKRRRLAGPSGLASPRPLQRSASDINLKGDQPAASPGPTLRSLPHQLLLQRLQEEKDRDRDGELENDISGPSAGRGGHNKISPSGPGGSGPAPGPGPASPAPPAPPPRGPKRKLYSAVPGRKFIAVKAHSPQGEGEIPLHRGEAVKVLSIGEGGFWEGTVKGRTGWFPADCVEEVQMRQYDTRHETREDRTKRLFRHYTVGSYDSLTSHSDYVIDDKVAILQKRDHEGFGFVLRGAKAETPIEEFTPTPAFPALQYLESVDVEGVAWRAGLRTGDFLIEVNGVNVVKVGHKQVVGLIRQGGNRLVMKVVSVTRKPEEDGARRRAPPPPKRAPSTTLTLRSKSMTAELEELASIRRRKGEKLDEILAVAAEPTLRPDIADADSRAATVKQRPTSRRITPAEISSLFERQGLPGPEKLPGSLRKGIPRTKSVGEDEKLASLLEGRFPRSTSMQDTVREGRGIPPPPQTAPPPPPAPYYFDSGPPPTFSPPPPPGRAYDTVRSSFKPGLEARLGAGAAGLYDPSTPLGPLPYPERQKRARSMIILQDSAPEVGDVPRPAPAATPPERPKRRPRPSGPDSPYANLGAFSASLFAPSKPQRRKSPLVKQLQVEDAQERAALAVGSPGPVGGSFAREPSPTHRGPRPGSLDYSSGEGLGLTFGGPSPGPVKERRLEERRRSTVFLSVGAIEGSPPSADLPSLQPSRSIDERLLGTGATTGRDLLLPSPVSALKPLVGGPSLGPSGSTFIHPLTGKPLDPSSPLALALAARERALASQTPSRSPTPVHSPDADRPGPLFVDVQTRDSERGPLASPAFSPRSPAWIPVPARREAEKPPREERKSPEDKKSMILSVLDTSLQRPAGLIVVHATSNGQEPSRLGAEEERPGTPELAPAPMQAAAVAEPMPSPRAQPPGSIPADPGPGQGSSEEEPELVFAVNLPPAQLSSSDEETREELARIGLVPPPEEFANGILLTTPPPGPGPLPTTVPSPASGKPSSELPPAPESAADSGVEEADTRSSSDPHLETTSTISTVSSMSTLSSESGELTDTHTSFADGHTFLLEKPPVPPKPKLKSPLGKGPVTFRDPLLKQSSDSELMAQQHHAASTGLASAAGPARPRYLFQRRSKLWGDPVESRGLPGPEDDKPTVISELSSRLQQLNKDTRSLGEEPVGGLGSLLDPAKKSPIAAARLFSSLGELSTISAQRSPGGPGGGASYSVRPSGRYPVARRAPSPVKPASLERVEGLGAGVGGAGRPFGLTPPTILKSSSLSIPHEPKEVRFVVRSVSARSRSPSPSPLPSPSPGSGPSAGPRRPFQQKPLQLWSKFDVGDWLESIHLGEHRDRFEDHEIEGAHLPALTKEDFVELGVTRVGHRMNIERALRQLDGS

Like-named read-outs stand apart in the source and are kept apart here. Results are given in words; binding and its absence hold for the method and conditions named. Binding seen in cells or lysates may run through a third protein. Some results given as binding are weak or reduced against the parent protein; the word gives no strength.

Holding throughout (assay): co-IP
Assay [1] has as its target Shank1 (mouse (endogenous in cultured cortical neurons and barrel cortex)) (UniProt D3YZU1).
Assay [2] deals with NMDAR2B (mouse (endogenous in cultured cortical neurons and barrel cortex)) (UniProt Q01097).
Assay [3] has as its target NMDAR2A (mouse (endogenous in cultured cortical neurons and barrel cortex)) (UniProt P35436).
The target in assay [4] is metabotropic glutamate receptor mGluR5 (mouse (endogenous in cultured cortical neurons and barrel cortex)) (UniProt Q3UVX5).
The target in assay [5] is T1, E3 ubiquitin ligase Ube3a (mouse (endogenous in cultured cortical neurons and barrel cortex)) (UniProt O08759).
T1 sequence: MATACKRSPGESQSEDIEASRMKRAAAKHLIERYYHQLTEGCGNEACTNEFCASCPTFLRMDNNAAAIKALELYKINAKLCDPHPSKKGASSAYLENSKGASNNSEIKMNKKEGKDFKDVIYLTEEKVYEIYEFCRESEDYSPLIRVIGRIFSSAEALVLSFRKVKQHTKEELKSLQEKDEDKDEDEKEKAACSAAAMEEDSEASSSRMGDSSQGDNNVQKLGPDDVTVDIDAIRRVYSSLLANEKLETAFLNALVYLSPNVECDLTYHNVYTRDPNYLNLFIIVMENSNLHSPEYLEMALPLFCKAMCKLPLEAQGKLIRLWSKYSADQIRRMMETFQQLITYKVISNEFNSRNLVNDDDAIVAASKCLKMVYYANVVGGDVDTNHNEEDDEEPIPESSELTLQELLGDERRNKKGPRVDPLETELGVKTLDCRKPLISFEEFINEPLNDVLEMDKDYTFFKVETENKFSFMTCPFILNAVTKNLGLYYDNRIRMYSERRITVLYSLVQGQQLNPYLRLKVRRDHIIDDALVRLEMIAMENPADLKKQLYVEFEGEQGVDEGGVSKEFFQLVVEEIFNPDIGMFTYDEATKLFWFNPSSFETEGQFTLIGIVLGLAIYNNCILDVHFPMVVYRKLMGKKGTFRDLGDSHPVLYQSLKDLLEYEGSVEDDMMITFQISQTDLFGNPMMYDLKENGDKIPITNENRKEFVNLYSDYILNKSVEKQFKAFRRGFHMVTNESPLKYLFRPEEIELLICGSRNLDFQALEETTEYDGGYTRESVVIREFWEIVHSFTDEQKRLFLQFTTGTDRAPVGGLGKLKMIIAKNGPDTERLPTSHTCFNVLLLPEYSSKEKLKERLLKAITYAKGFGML

The target of assay [6] is NL3 (mouse (endogenous in barrel cortex)) (UniProt Q8BYM5).
Assay [7] concerns the target T2, Homer1 (mouse (endogenous in cultured cortical neurons and barrel cortex)) (UniProt Q9Z2Y3).
T2 sequence: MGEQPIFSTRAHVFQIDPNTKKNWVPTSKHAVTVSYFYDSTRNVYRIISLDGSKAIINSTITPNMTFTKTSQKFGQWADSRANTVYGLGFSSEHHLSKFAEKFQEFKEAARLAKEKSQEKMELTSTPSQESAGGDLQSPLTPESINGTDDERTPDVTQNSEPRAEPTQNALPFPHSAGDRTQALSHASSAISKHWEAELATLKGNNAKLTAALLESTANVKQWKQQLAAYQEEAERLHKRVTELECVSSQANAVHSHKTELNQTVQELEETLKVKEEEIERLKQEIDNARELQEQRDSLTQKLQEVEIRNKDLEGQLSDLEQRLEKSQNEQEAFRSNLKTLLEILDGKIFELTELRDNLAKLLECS

Assay [8] deals with T3, E3 ubiquitin ligase Ube3a (mouse (endogenous in cultured cortical neurons and barrel cortex)), O08759.
T3 chain: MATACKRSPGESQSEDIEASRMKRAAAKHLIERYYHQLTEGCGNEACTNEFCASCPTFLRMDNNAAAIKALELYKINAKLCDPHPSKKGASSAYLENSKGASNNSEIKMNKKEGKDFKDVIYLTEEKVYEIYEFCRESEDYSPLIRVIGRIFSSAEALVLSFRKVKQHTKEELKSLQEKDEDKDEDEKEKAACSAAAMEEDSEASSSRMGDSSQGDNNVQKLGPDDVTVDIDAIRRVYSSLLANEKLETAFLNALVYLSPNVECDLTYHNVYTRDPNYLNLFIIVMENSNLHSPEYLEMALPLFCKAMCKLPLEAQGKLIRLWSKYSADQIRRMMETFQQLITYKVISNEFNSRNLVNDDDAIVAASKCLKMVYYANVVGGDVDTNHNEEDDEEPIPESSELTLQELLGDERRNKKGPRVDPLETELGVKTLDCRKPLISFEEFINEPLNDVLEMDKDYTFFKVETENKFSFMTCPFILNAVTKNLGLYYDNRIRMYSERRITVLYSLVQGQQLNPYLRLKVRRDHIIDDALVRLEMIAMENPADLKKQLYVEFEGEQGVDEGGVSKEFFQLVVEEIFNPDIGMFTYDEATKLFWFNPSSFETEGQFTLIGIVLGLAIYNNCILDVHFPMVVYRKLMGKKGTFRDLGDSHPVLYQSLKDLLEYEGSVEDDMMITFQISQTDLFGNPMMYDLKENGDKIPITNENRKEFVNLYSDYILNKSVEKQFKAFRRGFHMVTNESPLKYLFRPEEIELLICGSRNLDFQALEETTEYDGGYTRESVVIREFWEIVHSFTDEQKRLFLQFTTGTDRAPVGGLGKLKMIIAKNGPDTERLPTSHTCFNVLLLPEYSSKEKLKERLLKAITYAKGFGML
As to conditions: remark: other sources report otherwise.

The target of assay [9] is metabotropic glutamate receptor mGluR5 (mouse (endogenous in cultured cortical neurons and barrel cortex)) (UniProt Q3UVX5). This is another data set of the same source.

Regarding “Fyn kinase (from UniProt P39688 1-537) (enzyme)”, the binding entry in assay [1], in assay [2], in assay [3], in [4] and in [5] was “binds” in each case.
With NL3 (from UniProt Q8BYM5 35-825), the binding entry in [3] was “binds”.
On to “NMDAR2B (from UniProt Q01097 27-1482) (receptor)”, for which, in [1], the binding entry is recorded as “binds”.
Regarding PIKE (from UniProt Q3UHD9 1-1186), in assay [6], the binding result is “binds”.
As to Shank3 (from UniProt Q4ACU6 1-1730), the binding entry in assay [7] is reported as “binds”.

B1: E3 ubiquitin ligase Ube3a, O08759 1-870 (enzyme)
chain: MATACKRSPGESQSEDIEASRMKRAAAKHLIERYYHQLTEGCGNEACTNEFCASCPTFLRMDNNAAAIKALELYKINAKLCDPHPSKKGASSAYLENSKGASNNSEIKMNKKEGKDFKDVIYLTEEKVYEIYEFCRESEDYSPLIRVIGRIFSSAEALVLSFRKVKQHTKEELKSLQEKDEDKDEDEKEKAACSAAAMEEDSEASSSRMGDSSQGDNNVQKLGPDDVTVDIDAIRRVYSSLLANEKLETAFLNALVYLSPNVECDLTYHNVYTRDPNYLNLFIIVMENSNLHSPEYLEMALPLFCKAMCKLPLEAQGKLIRLWSKYSADQIRRMMETFQQLITYKVISNEFNSRNLVNDDDAIVAASKCLKMVYYANVVGGDVDTNHNEEDDEEPIPESSELTLQELLGDERRNKKGPRVDPLETELGVKTLDCRKPLISFEEFINEPLNDVLEMDKDYTFFKVETENKFSFMTCPFILNAVTKNLGLYYDNRIRMYSERRITVLYSLVQGQQLNPYLRLKVRRDHIIDDALVRLEMIAMENPADLKKQLYVEFEGEQGVDEGGVSKEFFQLVVEEIFNPDIGMFTYDEATKLFWFNPSSFETEGQFTLIGIVLGLAIYNNCILDVHFPMVVYRKLMGKKGTFRDLGDSHPVLYQSLKDLLEYEGSVEDDMMITFQISQTDLFGNPMMYDLKENGDKIPITNENRKEFVNLYSDYILNKSVEKQFKAFRRGFHMVTNESPLKYLFRPEEIELLICGSRNLDFQALEETTEYDGGYTRESVVIREFWEIVHSFTDEQKRLFLQFTTGTDRAPVGGLGKLKMIIAKNGPDTERLPTSHTCFNVLLLPEYSSKEKLKERLLKAITYAKGFGML
Turning to B1, the binding result in [8] is “binds”.

B2: Homer1 (protein, UniProt Q9Z2Y3 1-366)
chain: MGEQPIFSTRAHVFQIDPNTKKNWVPTSKHAVTVSYFYDSTRNVYRIISLDGSKAIINSTITPNMTFTKTSQKFGQWADSRANTVYGLGFSSEHHLSKFAEKFQEFKEAARLAKEKSQEKMELTSTPSQESAGGDLQSPLTPESINGTDDERTPDVTQNSEPRAEPTQNALPFPHSAGDRTQALSHASSAISKHWEAELATLKGNNAKLTAALLESTANVKQWKQQLAAYQEEAERLHKRVTELECVSSQANAVHSHKTELNQTVQELEETLKVKEEEIERLKQEIDNARELQEQRDSLTQKLQEVEIRNKDLEGQLSDLEQRLEKSQNEQEAFRSNLKTLLEILDGKIFELTELRDNLAKLLECS
B2: the binding result in [9] is “binds”.
